Test results reported in publication PMC4685312.

Chains of the proteins cited; added tags and fusions are not shown.
UniProt Q6W2J9: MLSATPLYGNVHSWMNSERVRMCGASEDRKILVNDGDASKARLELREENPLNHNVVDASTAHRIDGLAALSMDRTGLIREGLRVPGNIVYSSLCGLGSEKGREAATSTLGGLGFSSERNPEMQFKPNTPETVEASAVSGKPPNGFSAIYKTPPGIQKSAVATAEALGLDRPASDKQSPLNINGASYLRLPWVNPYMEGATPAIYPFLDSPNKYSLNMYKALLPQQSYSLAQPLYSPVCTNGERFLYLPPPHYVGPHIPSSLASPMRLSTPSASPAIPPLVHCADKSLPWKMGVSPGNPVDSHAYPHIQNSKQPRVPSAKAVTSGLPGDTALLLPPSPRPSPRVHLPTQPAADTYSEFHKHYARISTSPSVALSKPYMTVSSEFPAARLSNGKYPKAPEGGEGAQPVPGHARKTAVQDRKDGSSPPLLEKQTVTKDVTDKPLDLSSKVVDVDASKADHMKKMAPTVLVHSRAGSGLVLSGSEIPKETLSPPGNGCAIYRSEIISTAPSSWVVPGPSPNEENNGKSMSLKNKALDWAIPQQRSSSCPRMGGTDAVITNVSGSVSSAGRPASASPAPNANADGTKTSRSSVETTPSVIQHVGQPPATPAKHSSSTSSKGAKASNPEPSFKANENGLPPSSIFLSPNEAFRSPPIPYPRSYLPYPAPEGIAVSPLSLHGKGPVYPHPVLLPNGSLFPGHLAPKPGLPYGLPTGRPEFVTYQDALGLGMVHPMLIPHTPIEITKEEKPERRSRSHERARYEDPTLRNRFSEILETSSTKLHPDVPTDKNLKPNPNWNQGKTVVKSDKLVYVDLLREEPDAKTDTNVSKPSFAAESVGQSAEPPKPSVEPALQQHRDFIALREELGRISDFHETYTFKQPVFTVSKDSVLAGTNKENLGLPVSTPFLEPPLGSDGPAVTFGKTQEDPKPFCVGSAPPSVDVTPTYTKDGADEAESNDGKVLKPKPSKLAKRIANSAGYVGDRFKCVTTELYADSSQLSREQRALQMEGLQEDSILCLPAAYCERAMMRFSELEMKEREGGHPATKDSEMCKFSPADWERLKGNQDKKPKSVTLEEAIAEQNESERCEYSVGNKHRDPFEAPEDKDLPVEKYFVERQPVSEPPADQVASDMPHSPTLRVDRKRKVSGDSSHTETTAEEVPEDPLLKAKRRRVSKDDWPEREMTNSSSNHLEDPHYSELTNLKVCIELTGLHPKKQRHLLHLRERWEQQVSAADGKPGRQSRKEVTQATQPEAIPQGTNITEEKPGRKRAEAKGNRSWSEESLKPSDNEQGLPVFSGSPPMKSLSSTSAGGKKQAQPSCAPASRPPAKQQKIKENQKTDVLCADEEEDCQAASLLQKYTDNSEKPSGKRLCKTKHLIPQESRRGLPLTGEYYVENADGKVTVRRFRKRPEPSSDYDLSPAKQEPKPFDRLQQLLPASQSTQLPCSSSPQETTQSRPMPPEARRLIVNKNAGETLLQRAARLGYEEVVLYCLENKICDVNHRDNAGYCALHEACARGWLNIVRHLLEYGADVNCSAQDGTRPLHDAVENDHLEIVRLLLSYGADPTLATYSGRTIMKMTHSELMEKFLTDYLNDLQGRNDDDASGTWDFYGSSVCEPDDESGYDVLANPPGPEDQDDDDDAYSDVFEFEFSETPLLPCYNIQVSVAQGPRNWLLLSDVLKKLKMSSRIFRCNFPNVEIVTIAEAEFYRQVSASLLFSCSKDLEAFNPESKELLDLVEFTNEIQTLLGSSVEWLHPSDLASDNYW
UniProt Q9BSM1: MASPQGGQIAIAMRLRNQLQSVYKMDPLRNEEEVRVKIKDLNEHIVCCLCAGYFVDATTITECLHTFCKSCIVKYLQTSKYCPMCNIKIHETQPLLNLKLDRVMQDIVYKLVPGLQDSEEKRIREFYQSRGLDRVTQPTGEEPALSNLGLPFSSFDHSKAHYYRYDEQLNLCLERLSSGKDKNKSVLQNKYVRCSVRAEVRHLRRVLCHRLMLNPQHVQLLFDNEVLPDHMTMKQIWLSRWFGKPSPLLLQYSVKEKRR
UniProt Q9H9S0: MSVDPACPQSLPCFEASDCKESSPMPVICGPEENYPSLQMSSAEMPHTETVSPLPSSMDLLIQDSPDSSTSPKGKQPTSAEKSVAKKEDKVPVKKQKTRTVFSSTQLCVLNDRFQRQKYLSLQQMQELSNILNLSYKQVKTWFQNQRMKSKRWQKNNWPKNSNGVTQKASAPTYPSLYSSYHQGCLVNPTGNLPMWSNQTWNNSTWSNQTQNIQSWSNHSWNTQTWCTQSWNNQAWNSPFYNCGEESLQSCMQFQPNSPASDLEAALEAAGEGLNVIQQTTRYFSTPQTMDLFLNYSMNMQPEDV
UniProt Q01860: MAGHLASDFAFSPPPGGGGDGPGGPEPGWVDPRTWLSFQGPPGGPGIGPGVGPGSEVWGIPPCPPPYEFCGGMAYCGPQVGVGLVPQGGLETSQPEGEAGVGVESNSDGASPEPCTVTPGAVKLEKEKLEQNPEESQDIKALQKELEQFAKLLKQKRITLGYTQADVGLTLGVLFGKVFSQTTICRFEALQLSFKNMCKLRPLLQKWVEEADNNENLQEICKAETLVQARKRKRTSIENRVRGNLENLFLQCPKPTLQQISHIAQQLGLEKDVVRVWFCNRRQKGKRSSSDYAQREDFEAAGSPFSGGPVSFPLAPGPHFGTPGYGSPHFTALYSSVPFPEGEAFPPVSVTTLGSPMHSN

T1: DPPA4 (human (endogenous in NT2)) (UniProt Q7L190)
T1 sequence: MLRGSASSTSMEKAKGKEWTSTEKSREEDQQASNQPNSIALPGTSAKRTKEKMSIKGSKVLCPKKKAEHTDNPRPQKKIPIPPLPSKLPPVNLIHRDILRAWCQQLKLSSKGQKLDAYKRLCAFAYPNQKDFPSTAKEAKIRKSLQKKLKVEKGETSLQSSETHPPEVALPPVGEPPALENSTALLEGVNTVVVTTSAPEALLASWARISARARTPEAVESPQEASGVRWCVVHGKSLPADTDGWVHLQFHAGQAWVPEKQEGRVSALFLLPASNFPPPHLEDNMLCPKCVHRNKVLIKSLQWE

B1: KDM2B (protein, UniProt Q8NHM5 1-1336)
chain: MAGPQMGGSAEDHPPRKRHAAEKQKKKTVIYTKCFEFESATQRPIDRQRYDENEDLSDVEEIVSVRGFSLEEKLRSQLYQGDFVHAMEGKDFNYEYVQREALRVPLIFREKDGLGIKMPDPDFTVRDVKLLVGSRRLVDVMDVNTQKGTEMSMSQFVRYYETPEAQRDKLYNVISLEFSHTKLEHLVKRPTVVDLVDWVDNMWPQHLKEKQTEATNAIAEMKYPKVKKYCLMSVKGCFTDFHIDFGGTSVWYHVFRGGKIFWLIPPTLHNLALYEEWVLSGKQSDIFLGDRVERCQRIELKQGYTFFIPSGWIHAVYTPVDSLVFGGNILHSFNVPMQLRIYEIEDRTRVQPKFRYPFYYEMCWYVLERYVYCVTQRSHLTQEYQRESMLIDAPRKPSIDGFSSDSWLEMEEEACDQQPQEEEEKDEEGEGRDRAPKPPTDGSTSPTSTPSEDQEALGKKPKAPALRFLKRTLSNESEESVKSTTLAVDYPKTPTGSPATEVSAKWTHLTEFELKGLKALVEKLESLPENKKCVPEGIEDPQALLEGVKNVLKEHADDDPSLAITGVPVVTWPKKTPKNRAVGRPKGKLGPASAVKLAANRTTAGARRRRTRCRKCEACLRTECGECHFCKDMKKFGGPGRMKQSCIMRQCIAPVLPHTAVCLVCGEAGKEDTVEEEEGKFNLMLMECSICNEIIHPGCLKIKESEGVVNDELPNCWECPKCNHAGKTGKQKRGPGFKYASNLPGSLLKEQKMNRDNKEGQEPAKRRSECEEAPRRRSDEHSKKVPPDGLLRRKSDDVHLRKKRKYEKPQELSGRKRASSLQTSPGSSSHLSPRPPLGSSLSPWWRSSLTYFQQQLKPGKEDKLFRKKRRSWKNAEDRMALANKPLRRFKQEPEDELPEAPPKTRESDHSRSSSPTAGPSTEGAEGPEEKKKVKMRRKRRLPNKELSRELSKELNHEIQRTENSLANENQQPIKSEPESEGEEPKRPPGICERPHRFSKGLNGTPRELRHQLGPSLRSPPRVISRPPPSVSPPKCIQMERHVIRPPPISPPPDSLPLDDGAAHVMHREVWMAVFSYLSHQDLCVCMRVCRTWNRWCCDKRLWTRIDLNHCKSITPLMLSGIIRRQPVSLDLSWTNISKKQLSWLINRLPGLRDLVLSGCSWIAVSALCSSSCPLLRTLDVQWVEGLKDAQMRDLLSPPTDNRPGQMDNRSKLRNIVELRLAGLDITDASLRLIIRHMPLLSKLHLSYCNHVTDQSINLLTAVGTTTRDSLTEINLSDCNKVTDQCLSFFKRCGNICHIDLRYCKQVTKEGCEQFIAEMSVSVQFGQVEEKLLQKLS
B2: RYBP (protein, UniProt Q8N488 1-228)
chain: MTMGDKKSPTRPKRQAKPAADEGFWDCSVCTFRNSAEAFKCSICDVRKGTSTRKPRINSQLVAQQVAQQYATPPPPKKEKKEKVEKQDKEKPEKDKEISPSVTKKNTNKKTKPKSDILKDPPSEANSIQSANATTKTSETNHTSRPRLKNVDRSTAQQLAVTVGNVTVIITDFKEKTRSSSTSSSTVTSSAGSEQQNQSSSGSESTDKGSSRSSTPKGDMSAVNDESF
B3: RNF2, Q99496 1-336 (protein)
chain: MSQAVQTNGTQPLSKTWELSLYELQRTPQEAITDGLEIVVSPRSLHSELMCPICLDMLKNTMTTKECLHRFCADCIITALRSGNKECPTCRKKLVSKRSLRPDPNFDALISKIYPSRDEYEAHQERVLARINKHNNQQALSHSIEEGLKIQAMNRLQRGKKQQIENGSGAEDNGDSSHCSNASTHSNQEAGPSNKRTKTSDDSGLELDNNNAAMAIDPVMDGASEIELVFRPHPTLMEKDDSAQTRYIKTSGNATVDHLSKYLAVRLALEELRSKGESNQMNLDTASEKQYTIYIATASGQFTVLNGSFSLELVSEKYWKVNKPMELYYAPTKEHK
B4: PCGF2 (protein, UniProt P35227 1-344)
chain: MHRTTRIKITELNPHLMCALCGGYFIDATTIVECLHSFCKTCIVRYLETNKYCPMCDVQVHKTRPLLSIRSDKTLQDIVYKLVPGLFKDEMKRRRDFYAAYPLTEVPNGSNEDRGEVLEQEKGALSDDEIVSLSIEFYEGARDRDEKKGPLENGDGDKEKTGVRFLRCPAAMTVMHLAKFLRNKMDVPSKYKVEVLYEDEPLKEYYTLMDIAYIYPWRRNGPLPLKYRVQPACKRLTLATVPTPSEGTNTSGASECESVSDKAPSPATLPATSSSLPSPATPSHGSPSSHGPPATHPTSPTPPSTASGATTAANGGSLNCLQTPSSTSRGRKMTVNGAPVPPLT
B5: PHC1 (protein, UniProt P78364 1-1004)
chain: METESEQNSNSTNGSSSSGGSSRPQIAQMSLYERQAVQALQALQRQPNAAQYFHQFMLQQQLSNAQLHSLAAVQQATIAASRQASSPNTSTTQQQTTTTQASINLATTSAAQLISRSQSVSSPSATTLTQSVLLGNTTSPPLNQSQAQMYLRPQLGNLLQVNRTLGRNVPLASQLILMPNGAVAAVQQEVPSAQSPGVHADADQVQNLAVRNQQASAQGPQMQGSTQKAIPPGASPVSSLSQASSQALAVAQASSGATNQSLNLSQAGGGSGNSIPGSMGPGGGGQAHGGLGQLPSSGMGGGSCPRKGTGVVQPLPAAQTVTVSQGSQTEAESAAAKKAEADGSGQQNVGMNLTRTATPAPSQTLISSATYTQIQPHSLIQQQQQIHLQQKQVVIQQQIAIHHQQQFQHRQSQLLHTATHLQLAQQQQQQQQQQQQQQQPQATTLTAPQPPQVPPTQQVPPSQSQQQAQTLVVQPMLQSSPLSLPPDAAPKPPIPIQSKPPVAPIKPPQLGAAKMSAAQQPPPHIPVQVVGTRQPGTAQAQALGLAQLAAAVPTSRGMPGTVQSGQAHLASSPPSSQAPGALQECPPTLAPGMTLAPVQGTAHVVKGGATTSSPVVAQVPAAFYMQSVHLPGKPQTLAVKRKADSEEERDDVSTLGSMLPAKASPVAESPKVMDEKSSLGEKAESVANVNANTPSSELVALTPAPSVPPPTLAMVSRQMGDSKPPQAIVKPQILTHIIEGFVIQEGAEPFPVGCSQLLKESEKPLQTGLPTGLTENQSGGPLGVDSPSAELDKKANLLKCEYCGKYAPAEQFRGSKRFCSMTCAKRYNVSCSHQFRLKRKKMKEFQEANYARVRRRGPRRSSSDIARAKIQGKCHRGQEDSSRGSDNSSYDEALSPTSPGPLSVRAGHGERDLGNPNTAPPTPELHGINPVFLSSNPSRWSVEEVYEFIASLQGCQEIAEEFRSQEIDGQALLLLKEEHLMSAMNIKLGPALKICAKINVLKET
B6: PHC2 (protein, UniProt Q8IXK0 1-858)
chain: MENELPVPHTSSSACATSSTSGASSSSGCNNSSSGGSGRPTGPQISVYSGIPDRQTVQVIQQALHRQPSTAAQYLQQMYAAQQQHLMLQTAALQQQHLSSAQLQSLAAVQQASLVSNRQGSTSGSNVSAQAPAQSSSINLAASPAAAQLLNRAQSVNSAAASGIAQQAVLLGNTSSPALTASQAQMYLRAQMLIFTPTATVATVQPELGTGSPARPPTPAQVQNLTLRTQQTPAAAASGPTPTQPVLPSLALKPTPGGSQPLPTPAQSRNTAQASPAGAKPGIADSVMEPHKKGDGNSSVPGSMEGRAGLSRTVPAVAAHPLIAPAYAQLQPHQLLPQPSSKHLQPQFVIQQQPQPQQQQPPPQQSRPVLQAEPHPQLASVSPSVALQPSSEAHAMPLGPVTPALPLQCPTANLHKPGGSQQCHPPTPDTGPQNGHPEGVPHTPQRRFQHTSAVILQLQPASPPQQCVPDDWKEVAPGEKSVPETRSGPSPHQQAIVTAMPGGLPVPTSPNIQPSPAHETGQGIVHALTDLSSPGMTSGNGNSASSIAGTAPQNGENKPPQAIVKPQILTHVIEGFVIQEGAEPFPVGRSSLLVGNLKKKYAQGFLPEKLPQQDHTTTTDSEMEEPYLQESKEEGAPLKLKCELCGRVDFAYKFKRSKRFCSMACAKRYNVGCTKRVGLFHSDRSKLQKAGAATHNRRRASKASLPPLTKDTKKQPTGTVPLSVTAALQLTHSQEDSSRCSDNSSYEEPLSPISASSSTSRRRQGQRDLELPDMHMRDLVGMGHHFLPSEPTKWNVEDVYEFIRSLPGCQEIAEEFRAQEIDGQALLLLKEDHLMSAMNIKLGPALKIYARISMLKDS

Tests used:
Test in all cases: affinity purification with mass spectrometry; endogenous immunoprecipitation (antibodies to PCGF1, BCOR, DPPA4, NANOG or OCT4) from nuclear lysate of undifferentiated NT2 cells, trypsin digest on beads, label-free mass spectrometry (Q Exactive), volcano plot against IgG beads
[1] = target: BCOR (human (endogenous in NT2)) (UniProt Q6W2J9)
[2] = target: T1, DPPA4 (human (endogenous in NT2))
[3] = target: PCGF1 (human (endogenous in NT2)) (UniProt Q9BSM1)
[4] = target: NANOG (human (endogenous in NT2)) (UniProt Q9H9S0)
[5] = target: OCT4 (human (endogenous in NT2)) (UniProt Q01860)
[6] = target: OCT4 (human (endogenous in NT2)), Q01860; details: remark: other sources report otherwise
[7] = target: NANOG (human (endogenous in NT2)), Q9H9S0; details: remark: other sources report otherwise

Binder | binding [1] | binding [2] | binding [3] | binding [4] | binding [5] | other results
B1 | binds | no binding | binds | binds | no binding | 
B2 | binds | no binding | binds |  | no binding | 
B3 |  |  |  |  |  | binding [6]: no binding; binding [7]: binds
B4 |  |  |  | binds |  | 
B5 |  |  |  | binds |  | 
B6 |  |  |  | binds |  | 

Results are given in words; binding and its absence hold for the method and conditions named. Binding seen in cells or lysates may run through a third protein. A yes stands for co-enrichment or nearness to the bait. Other partners may have been found. For some assays here: No binding means not detected with the bait.
